From PubChem BioAssay AID1487 (National Center for Advancing Translational Sciences (NCATS), 2009) come the findings set out here.

A short description of this experiment: qHTS Assay for Modulators of Lamin A Splicing. The settings on record: HeLa LMNA splicing GFP/RFP minigene ratio, 48 h. A digest of the protocol: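 Read-out is the ratio of GFP to DsRed2 object intensity, acquired by 488 nm laser-scanning cytometry on HeLa lamin A-EGFP minigene reporter cells. Compound incubation 48 hrs at 37 °C in Opti-MEM with 2% FBS; DMSO 0.5% final.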

[1] abbreviates: measured here: RFP viability control channel.
[2] abbreviates: measured here: GFP splicing reporter channel.

SMILES strings stand for the structures. Some of the results follow. Shown are side measurements of this screen, not its main read-out; they come without a call. Compounds called inactive in the main read-out are mostly missing here. Potencies come from curve fits of mixed quality, noted in brackets.

A word on the AC50: it is the midpoint of the concentration-response curve, whichever way the signal moves. On to `COC(=O)c1ccc(C2C(C(=O)Nc3ccc(C)cc3C)=C(C)Nc3ncnn32)cc1` (centres undefined), for which, under setting [1], the half-maximal activity concentration (AC50) was 25.1 µM [rising, single point].
Turning to `Cc1ccc(C2CC(=O)NC(SCC(=O)OCc3ccccc3)=C2C#N)o1` (centres undefined), the AC50 under setting [1] was 35.5 µM [rising, single point].
Consider `Cc1ccc(-c2csc(NC(=O)CSc3nc(C)cc(=O)[nH]3)n2)cc1`, for which, under setting [2], the AC50 was 11.2 µM [rising, partial curve].
Consider `CC(C)(C)NC(=O)[C@@H]1C[C@H]2CCCC[C@@H]2CN1C[C@H](O)[C@H](Cc1ccccc1)NC(=O)[C@@H](CC(N)=O)NC(=O)c1ccc2ccccc2n1`, for which the AC50 is 7.08 µM [falling, partial curve] under setting [2] and 6.31 µM [falling, partial curve, poor fit] under setting [1].
As to `CCOC(=O)c1sc(Nc2nc3cc4c(cc3s2)OCO4)cc1C`, the AC50 is 12.6 µM [rising, single point] under setting [2] and 12.6 µM [rising, partial curve] under setting [1].
Consider `Cn1c(=O)c2c(ncn2CC(=O)N/N=C/C(Br)=C/c2ccccc2)n(C)c1=O`, for which the AC50 under setting [1] is 10 µM [rising, partial curve, poor fit].
As to `CNC(=S)N/N=C/c1cccc(OCc2ccccc2F)c1`, the AC50 is, setting by setting: under setting [2], 35.5 µM [rising, single point]; under setting [1], 35.5 µM [rising, single point].
As for `Cc1ccc(O)c(NC(=O)CSc2n[nH]c(C)c2[N+](=O)[O-])c1`, the AC50 under setting [2] was 14.1 µM [falling, single point].
In the case of `COc1ccc(C(=O)Nc2sc(C)c(-c3ccccc3)c2C#N)cc1OC`, the AC50 under setting [1] was 25.1 µM [rising, single point].
As to `Cc1ccc(NC(=O)CSc2ncnc3ccccc23)cc1S(=O)(=O)N1CCCCC1`, the AC50 is, setting by setting: under setting [2], 5.62 µM [rising, single point]; under setting [1], 8.91 µM [rising, partial curve, poor fit].
With `CCCCCC(=O)Nc1ccc2ccccc2c1`, under setting [1], the AC50 is 14.1 µM [rising, single point].
On to `CCOC(=O)c1ccc(CN(Cc2ccc(F)cc2)S(=O)(=O)c2ccc(F)cc2)cc1`, for which the AC50 under setting [2] was 0.00891 µM [falling, full curve].
For the compound `O=C(Nc1ccc(C(F)(F)F)cc1)c1cc(S(=O)(=O)NC2CCCCCC2)ccc1F`, the AC50 reads like this: under setting [2], 22.4 µM [falling, partial curve]; under setting [1], 25.1 µM [falling, partial curve].
`O=C(COc1ccc(S(=O)(=O)N2CCCC2)cc1)Nc1ccc2c(c1)OCCO2`: the half-maximal activity concentration (AC50) was 0.0794 µM [rising, full curve, poor fit] under setting [2] and 0.891 µM [rising, partial curve, poor fit] under setting [1].
`Cc1cc(/C=C(\C#N)C(=O)NCC2CCCO2)c(C)n1-c1ccc(Cl)cc1` (centres undefined): the AC50 under setting [1] was 12.6 µM [rising, partial curve].
For the compound `S=C(NCCN1CCOCC1)Nc1ccccc1Cl`, the AC50 under setting [1] was 0.251 µM [rising, full curve, poor fit].
`O=C(OC1CCCCC1)c1ccc(NC(=O)C2CCCCC2)cc1`: the AC50 reads like this: under setting [2], 15.8 µM [rising, single point]; under setting [1], 31.6 µM [rising, single point].
With `Cc1ccc(CCSc2ccc(C(C)C)cc2)cn1`, the AC50 under setting [1] is 35.5 µM [rising, single point].
`Cc1ccc(C(=O)Nc2ccc3nc(SCC(=O)N4CCc5ccccc54)sc3c2)cc1`: the AC50 under setting [2] was 0.158 µM [falling, full curve, poor fit].
On to `CN(Cc1ccco1)c1ncncc1-c1ccoc1`, for which, under setting [1], the AC50 was 11.2 µM [falling, partial curve].
As for `Cc1ccc(C(=O)Nc2nc(C(C)(C)C)cs2)s1`, the AC50 under setting [1] is 31.6 µM [rising, single point].
Turning to `Cc1ccc(C(=O)N/N=C\C=C\c2ccccc2[N+](=O)[O-])cn1`, the AC50 runs as follows: under setting [2], 0.0501 µM [falling, full curve, poor fit]; under setting [1], 0.794 µM [falling, full curve, poor fit].
`Cc1cccc(C(=O)NC(=S)Nc2ccc(S(=O)(=O)N(C)c3ccccc3)cc2)c1`: under setting [1], the AC50 was 17.8 µM [rising, single point].
For `Cc1oc2c(c1C(=O)N1CCOCC1)C(=O)c1ccccc1C2=O`, the AC50 reads like this: under setting [2], 7.08 µM [falling, full curve]; under setting [1], 6.31 µM [falling, full curve].
For `O=C(Nc1nc2c(s1)CCCC2)c1ccc2ncsc2c1`, the AC50 by setting is: under setting [2], 12.6 µM [rising, partial curve]; under setting [1], 22.4 µM [rising, partial curve].
On to `CCCNS(=O)(=O)c1ccc(CCC(=O)Nc2ccc3c(c2)OCCO3)cc1`, for which, under setting [1], the AC50 is 35.5 µM [rising, single point].
`Cc1c(N/N=C(\C#N)C(=O)c2ccccc2)c(=O)n(-c2ccccc2)n1C`: the AC50 under setting [1] is 5.62 µM [rising, full curve].
Still for that read-out and setting: the figure for `CCCCSc1nnc([C@@H](NC(=O)OC(C)(C)C)C(C)C)o1` is 31.6 µM [rising, single point]; for `O=C(Nc1cnn(Cc2ccc(Cl)cc2Cl)c1)c1cc(-c2cccs2)on1` it is 35.5 µM [falling, single point].
`N#C/C(=C1/SCC(c2ccccc2Cl)S1)n1ccnc1` (centres undefined): the AC50 was 10 µM [rising, partial curve, poor fit] under setting [2] and 10 µM [rising, partial curve] under setting [1].
On to `c1ccc(C(c2nnnn2Cc2ccco2)N2CCN(c3nc4ccccc4s3)CC2)cc1` (centres undefined), for which the AC50 under setting [1] was 35.5 µM [rising, single point].
`CC(=O)N1CCN(c2ccc(Nc3ncnc4c3oc3ccccc34)cc2)CC1`: the AC50 is 12.6 µM [rising, partial curve] under setting [2] and 11.2 µM [rising, partial curve] under setting [1].
Regarding `O=C(CCOc1ccccc1)Nc1cccc(S(=O)(=O)Nc2ccccc2Cl)c1`, the AC50 was 5.01 µM [rising, partial curve, poor fit] under setting [2] and 22.4 µM [rising, single point] under setting [1].
In the case of `CCN(CC)S(=O)(=O)c1ccc(OC)c(NC(=O)c2cccs2)c1`, the AC50 under setting [1] was 35.5 µM [falling, partial curve].
Turning to `CNc1ccccc(-c2ccc3ccccc3n2)c1=O`, the AC50 was 35.5 µM [rising, single point] under setting [2] and 22.4 µM [rising, single point] under setting [1].
